This note sets out measurements from article PMC10143966, “The Replicative DnaE Polymerase of Bacillus subtilis Recruits the Glycolytic Pyruvate Kinase (PykA) When Bound to Primed DNA Templates” (Life, 2023).

This test addresses T1, B. subtilis DnaE polymerase (B. subtilis, UniProt O34623 1-1115).
T1 construct: DnaE DNA polymerase, Bacillus subtilis; also called replicative DnaE polymerase; lagging strand DNA polymerase
T1 sequence (looked up): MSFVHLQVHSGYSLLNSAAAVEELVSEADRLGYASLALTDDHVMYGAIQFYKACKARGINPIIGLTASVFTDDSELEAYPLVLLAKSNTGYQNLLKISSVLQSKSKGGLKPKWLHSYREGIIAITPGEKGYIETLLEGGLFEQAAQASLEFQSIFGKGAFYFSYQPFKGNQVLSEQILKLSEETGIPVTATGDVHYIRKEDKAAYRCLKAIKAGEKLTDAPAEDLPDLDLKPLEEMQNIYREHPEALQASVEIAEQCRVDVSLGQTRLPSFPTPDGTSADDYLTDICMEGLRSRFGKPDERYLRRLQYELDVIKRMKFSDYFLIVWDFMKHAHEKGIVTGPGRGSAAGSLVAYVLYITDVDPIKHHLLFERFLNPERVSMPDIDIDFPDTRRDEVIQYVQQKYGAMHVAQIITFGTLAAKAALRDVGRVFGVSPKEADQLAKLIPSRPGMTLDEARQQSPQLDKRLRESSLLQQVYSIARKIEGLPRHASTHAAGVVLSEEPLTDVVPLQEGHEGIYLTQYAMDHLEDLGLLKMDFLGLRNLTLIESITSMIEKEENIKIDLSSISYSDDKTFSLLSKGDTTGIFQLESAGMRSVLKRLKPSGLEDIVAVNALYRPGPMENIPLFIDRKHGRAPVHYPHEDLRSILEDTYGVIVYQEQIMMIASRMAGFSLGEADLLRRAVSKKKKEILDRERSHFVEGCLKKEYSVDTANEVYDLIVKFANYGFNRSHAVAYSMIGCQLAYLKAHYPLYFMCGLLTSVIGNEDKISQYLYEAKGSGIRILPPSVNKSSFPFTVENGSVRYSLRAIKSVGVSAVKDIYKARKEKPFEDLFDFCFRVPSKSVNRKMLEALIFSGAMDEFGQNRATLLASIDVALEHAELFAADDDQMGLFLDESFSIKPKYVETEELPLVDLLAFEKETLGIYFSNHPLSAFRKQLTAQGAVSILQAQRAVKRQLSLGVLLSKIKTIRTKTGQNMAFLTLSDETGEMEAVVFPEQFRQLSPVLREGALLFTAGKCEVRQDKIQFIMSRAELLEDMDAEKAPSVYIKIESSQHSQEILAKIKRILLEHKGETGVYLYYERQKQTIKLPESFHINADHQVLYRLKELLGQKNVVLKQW
Description: condition: only in the absence of DNA (DnaE immobilised directly on the chip surface); SPR; absence of DNA; DnaE immobilised on a C1 sensor chip by EDC/NHS chemistry, PykA added; Biacore T200; both purified. In general terms: SPR reads the build-up and loss of mass on a sensor chip optically.

These are yes or no findings as the source states them, for the method shown.

B1: B. subtilis pyruvate kinase PykA, full-length, wild type (enzyme, UniProt P80885 1-585, looked up)
chain: MRKTKIVCTIGPASESIEMLTKLMESGMNVARLNFSHGDFEEHGARIKNIREASKKLGKNVGILLDTKGPEIRTHTMENGGIELETGKELIISMDEVVGTTDKISVTYEGLVHDVEQGSTILLDDGLIGLEVLDVDAAKREIKTKVLNNGTLKNKKGVNVPGVSVNLPGITEKDARDIVFGIEQGVDFIAPSFIRRSTDVLEIRELLEEHNAQDIQIIPKIENQEGVDNIDAILEVSDGLMVARGDLGVEIPAEEVPLVQKELIKKCNALGKPVITATQMLDSMQRNPRPTRAEASDVANAIFDGTDAIMLSGETAAGSYPVEAVQTMHNIASRSEEALNYKEILSKRRDQVGMTITDAIGQSVAHTAINLNAAAIVTPTESGHTARMIAKYRPQAPIVAVTVNDSISRKLALVSGVFAESGQNASSTDEMLEDAVQKSLNSGIVKHGDLIVITAGTVGESGTTNLMKVHTVGDIIAKGQGIGRKSAYGPVVVAQNAKEAEQKMTDGAVLVTKSTDRDMIASLEKASALITEEGGLTSHAAVVGLSLGIPVIVGLENATSILTDGQDITVDASRGAVYQGRASVL
notes: PykA pyruvate kinase, Bacillus subtilis; 1755 bp pykA fragment amplified from genomic DNA, cloned into p2CT; the same vector gives an N-terminal tag for PEPut; Tetramer: legends give 16 nM monomers as 4 nM tetramers; also called full-length PykA; wild-type PykA; source: E. coli Rosetta (DE3), purified (HisTrap IMAC, TEV cleavage, reverse IMAC, Superdex 200 gel filtration)
Take B1: the binding entry is given as “no binding”.
